{"source": "patent US20070264349A1", "about": "“Nano-structured compositions and methods of making and using the same” (Novavax, Inc., priority 2006, published 2007)", "test": "Particle size measurement (Coulter particle sizer LS230)", "assay_type": "physicochemical", "text": "A Coulter particle sizer LS230 was used to measure particle size.", "note": "Several values for one entry are separate records, joined by “and”; a condition that tells them apart may be missing. Equal entries are not always repeated. For at least one compound, name, drawing or mass did not settle the structure.", "data": [{"smiles": "CC(C)OC(=O)C(C)(C)Oc1ccc(C(=O)c2ccc(Cl)cc2)cc1", "note": "[fenofibrate]", "values": [{"measurement": "size below which 100% of the particles lie", "setting": "after high-pressure homogenization (Examples 1, 4, 7)", "result": "less than 3 microns"}, {"measurement": "mean size of nanoemulsion droplets comprising the active ingredient", "setting": "after high-pressure homogenization, 10,000 psi (Examples 1, 2, 4)", "result": 60, "unit": "nm"}, {"measurement": "milled mean particle size", "setting": "after high-pressure homogenization, 10,000 psi (Examples 5, 6, 7)", "result": "about 2 microns"}, {"measurement": "size below which 100% of the particles lie", "setting": "after particle size reduction (FIG. 2, FIG. 4)", "result": "less than 3 μm"}, {"measurement": "mean particle size of raw active ingredient", "setting": "raw, before particle size reduction", "result": "57 μm and 54 μm"}]}]}
